Source: article PMC3313957

Protein sequences, listed by entry. Tags and fused reporters are not part of them. Residues count along the entry.
UniProt P22288, residues 12-241: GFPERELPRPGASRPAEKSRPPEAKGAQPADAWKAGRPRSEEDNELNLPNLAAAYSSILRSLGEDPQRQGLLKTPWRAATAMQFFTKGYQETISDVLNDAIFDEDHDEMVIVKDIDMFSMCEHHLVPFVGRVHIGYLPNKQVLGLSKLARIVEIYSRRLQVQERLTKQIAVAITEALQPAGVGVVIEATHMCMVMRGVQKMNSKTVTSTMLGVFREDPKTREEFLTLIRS
UniProt P04904: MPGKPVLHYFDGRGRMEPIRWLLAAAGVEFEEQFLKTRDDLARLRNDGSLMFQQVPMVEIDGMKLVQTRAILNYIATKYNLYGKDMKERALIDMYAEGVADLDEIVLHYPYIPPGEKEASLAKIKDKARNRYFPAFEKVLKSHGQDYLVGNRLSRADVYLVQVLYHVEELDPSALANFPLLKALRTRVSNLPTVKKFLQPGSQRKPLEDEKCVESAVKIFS
UniProt Q5RK09: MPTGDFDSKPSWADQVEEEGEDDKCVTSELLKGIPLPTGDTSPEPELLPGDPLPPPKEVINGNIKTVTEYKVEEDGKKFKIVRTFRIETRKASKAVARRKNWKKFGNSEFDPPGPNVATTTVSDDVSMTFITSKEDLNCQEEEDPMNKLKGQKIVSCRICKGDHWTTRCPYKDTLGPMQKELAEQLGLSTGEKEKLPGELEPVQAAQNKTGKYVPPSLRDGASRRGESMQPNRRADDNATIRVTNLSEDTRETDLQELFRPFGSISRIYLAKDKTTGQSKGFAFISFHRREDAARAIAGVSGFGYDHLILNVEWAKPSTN
UniProt B0BNA7: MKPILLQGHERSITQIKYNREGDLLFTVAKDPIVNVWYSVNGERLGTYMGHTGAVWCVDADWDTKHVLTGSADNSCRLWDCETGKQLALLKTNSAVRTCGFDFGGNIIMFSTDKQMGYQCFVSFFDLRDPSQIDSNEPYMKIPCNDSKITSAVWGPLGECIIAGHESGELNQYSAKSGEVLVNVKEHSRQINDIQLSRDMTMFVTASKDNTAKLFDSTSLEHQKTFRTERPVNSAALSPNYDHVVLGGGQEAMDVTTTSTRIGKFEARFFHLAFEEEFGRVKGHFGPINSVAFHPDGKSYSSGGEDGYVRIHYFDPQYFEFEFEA
UniProt P47819: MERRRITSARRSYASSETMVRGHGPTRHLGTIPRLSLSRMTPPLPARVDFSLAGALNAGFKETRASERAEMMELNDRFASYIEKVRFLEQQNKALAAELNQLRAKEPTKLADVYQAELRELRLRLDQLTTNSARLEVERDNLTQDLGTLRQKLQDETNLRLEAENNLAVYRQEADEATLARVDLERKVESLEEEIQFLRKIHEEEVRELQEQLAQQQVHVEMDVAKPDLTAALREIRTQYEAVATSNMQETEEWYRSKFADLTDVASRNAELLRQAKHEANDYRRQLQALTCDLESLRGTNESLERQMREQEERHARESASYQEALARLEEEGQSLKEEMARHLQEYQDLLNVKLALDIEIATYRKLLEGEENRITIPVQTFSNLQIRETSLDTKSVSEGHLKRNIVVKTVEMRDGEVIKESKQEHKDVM
UniProt Q4G061: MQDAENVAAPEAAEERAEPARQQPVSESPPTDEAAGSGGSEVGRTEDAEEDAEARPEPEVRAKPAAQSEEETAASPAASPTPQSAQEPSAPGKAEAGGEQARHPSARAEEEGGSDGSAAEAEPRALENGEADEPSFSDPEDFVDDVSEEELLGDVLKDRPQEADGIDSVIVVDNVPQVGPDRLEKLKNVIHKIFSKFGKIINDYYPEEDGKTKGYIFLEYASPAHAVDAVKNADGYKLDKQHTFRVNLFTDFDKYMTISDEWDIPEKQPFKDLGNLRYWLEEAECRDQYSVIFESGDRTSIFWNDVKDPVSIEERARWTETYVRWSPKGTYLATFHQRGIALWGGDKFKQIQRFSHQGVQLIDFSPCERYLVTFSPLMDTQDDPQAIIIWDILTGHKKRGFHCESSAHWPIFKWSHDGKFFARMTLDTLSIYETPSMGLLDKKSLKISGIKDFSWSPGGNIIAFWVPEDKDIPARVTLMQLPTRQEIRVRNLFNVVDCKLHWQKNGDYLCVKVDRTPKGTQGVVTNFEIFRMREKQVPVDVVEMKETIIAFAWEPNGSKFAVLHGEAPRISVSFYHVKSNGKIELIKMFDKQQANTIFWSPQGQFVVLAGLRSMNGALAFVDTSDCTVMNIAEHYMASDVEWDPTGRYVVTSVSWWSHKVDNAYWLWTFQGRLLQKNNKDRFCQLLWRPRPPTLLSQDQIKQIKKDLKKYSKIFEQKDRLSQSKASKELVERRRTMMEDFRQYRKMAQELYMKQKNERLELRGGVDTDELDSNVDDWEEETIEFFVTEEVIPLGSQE
UniProt Q6IFV3: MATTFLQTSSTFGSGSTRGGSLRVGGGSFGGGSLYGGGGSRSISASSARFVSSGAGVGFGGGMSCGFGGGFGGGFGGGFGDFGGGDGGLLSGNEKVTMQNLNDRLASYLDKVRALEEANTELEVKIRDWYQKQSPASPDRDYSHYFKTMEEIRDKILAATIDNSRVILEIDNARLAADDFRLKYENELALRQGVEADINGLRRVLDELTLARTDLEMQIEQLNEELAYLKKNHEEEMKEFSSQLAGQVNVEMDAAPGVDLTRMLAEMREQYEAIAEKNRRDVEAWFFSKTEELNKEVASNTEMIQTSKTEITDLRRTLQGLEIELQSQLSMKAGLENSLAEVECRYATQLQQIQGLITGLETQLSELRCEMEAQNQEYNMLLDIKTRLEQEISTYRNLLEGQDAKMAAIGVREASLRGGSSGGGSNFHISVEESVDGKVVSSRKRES

B1: Dynamin-2 (protein, UniProt P39052 1-870)
chain: MGNRGMEELIPLVNKLQDAFSSIGQSCHLDLPQIAVVGGQSAGKSSVLENFVGRDFLPRGSGIVTRRPLILQLIFSKTEYAEFLHCKSKKFTDFDEVRQEIEAETDRVTGTNKGISPVPINLRVYSPHVLNLTLIDLPGITKVPVGDQPPDIEYQIKDMILQFISRESSLILAVTPANMDLANSDALKLAKEVDPQGLRTIGVITKLDLMDEGTDARDVLENKLLPLRRGYIGVVNRSQKDIEGRKDIRAALAAERKFFLSHPAYRHMADRMGTPHLQKTLNQQLTNHIRESLPTLRSKLQSQLLSLEKEVEEYKNFRPDDPTRKTKALLQMVQQFGVDFEKRIEGSGDQVDTLELSGGARINRIFHERFPFELVKMEFDEKDLRREISYAIKNIHGVRTGLFTPDLAFEAIVKKQVVKLKEPCLKCVDLVIQELISTVRQCTSKLSSYPRLREETERIVTTYIREREGRTKDQILLLIDIEQSYINTNHEDFIGFANAQQRSTQLNKKRAIPNQGEILVIRRGWLTINNISLMKGGSKEYWFVLTAESLSWYKDEEEKEKKYMLPLDNLKIRDVEKGFMSNKHVFAIFNTEQRNVYKDLRQIELACDSQEDVDSWKASFLRAGVYPEKDQAENEDGAQENTFSMDPQLERQVETIRNLVDSYVAIINKSIRDLMPKTIMHLMINNTKAFIHHELLAYLYSSADQSSLMEESAEQAQRRDDMLRMYHALKEALNIIGDISTSTVSTPVPPPVDDTWLQNTSSHSPTPQRRPVSSVHPPGRPPAVRGPTPGPPLIPMPVGATSSFSAPPIPSRPGPQNVFANNDPFSAPPQIPSRPARIPPGIPPGVPSRRAPAAPSRPTIIRPAEPSLLD
B2: ATP-binding cassette sub-family D member 3 (protein, UniProt P16970 1-659)
chain: MAAFSKYLTARNSSLAGAAFLLFCLLHKRRRALGLHGKKSGKPPLQNNEKEGKKERAVVDKVFLSRLSQILKIMVPRTFCKETGYLILIAVMLVSRTYCDVWMIQNGTLIESGIIGRSSKDFKRYLFNFIAAMPLISLVNNFLKYGLNELKLCFRVRLTRYLYEEYLQAFTYYKMGNLDNRIANPDQLLTQDVEKFCNSVVDLYSNLSKPFLDIVLYIFKLTSAIGAQGPASMMAYLLVSGLFLTRLRRPIGKMTIMEQKYEGEYRFVNSRLITNSEEIAFYNGNKREKQTIHSVFRKLVEHLHNFIFFRFSMGFIDSIIAKYIATVVGYLVVSRPFLDLAHPRHLHSTHSELLEDYYQSGRMLLRMSQALGRIVLAGREMTRLAGFTARITELMQVLKDLNHGKYERTMVSQQDKGIEGAQASPLIPGAGEIINADNIIKFDHVPLATPNGDILIQDLSFEVRSGANVLICGPNGCGKSSLFRVLGELWPLFGGHLTKPERGKLFYVPQRPYMTLGTLRDQVIYPDGKEDQKKKGISDQVLKGYLDNVQLGHILEREGGWDSVQDWMDVLSGGEKQRMAMARLFYHKPQFAILDECTSAVSVDVEDYIYSHCRKVGITLFTVSHRKSLWKHHEYYLHMDGRGNYEFKKITEDTVEFGS
B3: Glutathione S-transferase Mu 1 (enzyme, UniProt P04905 1-218)
chain: MPMILGYWNVRGLTHPIRLLLEYTDSSYEEKRYAMGDAPDYDRSQWLNEKFKLGLDFPNLPYLIDGSRKITQSNAIMRYLARKHHLCGETEEERIRADIVENQVMDNRMQLIMLCYNPDFEKQKPEFLKTIPEKMKLYSEFLGKRPWFAGDKVTYVDFLAYDILDQYHIFEPKCLDAFPNLKDFLARFEGLKKISAYMKSSRYLSTPIFSKLAQWSNK
B4: Keratin, type I cytoskeletal 1 (protein, UniProt Q6IFW5 1-456)
chain: MSLSVRTSALSRRSSSQNGVAGRPWGASASSVACGYGGTASGFGVGCGGLLSAASMFGSSSGFSGGSTGCSPGLGTAYGGPLGAGVGGMGIGGSSGGGSLCIFSGNDGGLLSGSEKETMQNLNDRLASYLGKVRALEEANAELENKIREWYETRRTGDSGSQSDYSKYYPLIEDLKNKIISASVSNAQLLLQIDNARLAAEDFRMKYENELALRQTVEADINGLRRVLDELTLARADLEAQTENLTEELAYMKKNHEEELQSFQAGGPGEVNVEMDAAPGVDLTKSGELRKEINSNTEQLQSSKSEVTDLKRMVQNLEIELQSQLAMKSSLEGSLAETEGGYCCQLSQMQQLIGSLEEQLQQLRADAERQNEDHQRLLGVKARLEMEIETYRRLLEGDTQGDGFDESLSLTVSKPQAPSVDSSKDPNKTRKIKTVVQEIVNGEVVSSQVQELEEAM
B5: ATP-dependent dihydroxyacetone kinase (enzyme, UniProt Q4KLZ6 1-578)
chain: MSSKKMVNSVEGCAGDALAGFVACNPDLQLLQGYRVALRSDLDSLKGRVALLSGGGSGHEPAHAGFIGKGMLTGVIAGAVFASPAVGSILAAIRAVAQAGTAGTLLIVKNYTGDRLNFGLAMEQAKAEGISVEMVVIEDDSAFTVLKKAGRRGLCGTILIHKVAGALAEEGMGLEEITKKVSVIAKAIGTLGVSLSPCSVPGTKPTFELAADEMELGLGIHGEAGVRRIKLVPVDQIVTLMLDHMTDTSNISHVPVKSGSSVVLMVNNLGGLSFLELGIIADAAIRLLEGRGVKVARALVGTFMSALEMRGVSLTLMLVDEPLLKLIDAETNAKAWPHMSKVSVTGRNRIRAAPTEPAEAPEATAAGGVASKQMTLVLDRISTTLIGLEEHLNALDRAAGDGDCGSTHSRAAKAIQGWLKEGPTPASPAQVLSKLSVLLLEKMGGSSGALYGLFLTAAAQPLKANTDLPAWSAAMDAGLKAMQKYGKAAPGDRTMLDSLWAAAQELQAWKSPGASLLPVLTKAVKSAEAAAEATKNMEAGAGRASYISSAQLDQPDPGAVAAAAIFRAILEVLQTKAA

These molecules were tested against GTP cyclohydrolase I (rat (endogenous in rat liver, brain, heart and kidney)) (UniProt P22288) (assay: affinity purification with mass spectrometry; rat liver homogenate (MOPS lysis buffer), pre-cleared, on GCH1 antibody cross-linked to protein A/G agarose overnight at 4°C; IgG agarose as control; wash 150 mM NaCl, 50 mM Tris-HCl pH 7.5; acid elution; LC/MS of tryptic peptides; five independent repeats).

binding, binds:
Glutathione S-transferase alpha-3 (from UniProt P04904 1-221) (enzyme)
Eukaryotic translation initiation factor 3 subunit G (from UniProt Q5RK09 1-320)
Eukaryotic translation initiation factor 3 subunit I (from UniProt B0BNA7 1-325)
Glial fibrillary acidic protein (from UniProt P47819 1-430)
Eukaryotic translation initiation factor 3 subunit B (from UniProt Q4G061 1-797)
Keratin, type I cytoskeletal 15 (from UniProt Q6IFV3 1-447)
B1
B2
B3
B4
B5

Results are given in words; binding and its absence hold for the method and conditions named. Binding seen in cells or lysates may run through a third protein. These calls come from enrichment with a bait or labelling near it, and not all partners need be listed.
